Source: US20090062199A1, “Nogo Receptor Polypeptides and Polypeptide Fragments and Uses Thereof” (Biogen Idec MA Inc., priority 2005, published 2009)
No constants are given. Whether binding was seen depends on the method and setting. Some results given as binding are weak or reduced against the parent protein; the word gives no strength. For part of these data: Sequences can lack the tags named with a protein. One block for each binder: values may come before it.

Protein sequences, listed by entry. Tags and fused reporters are not part of them. Residues count along the entry.
UniProt P08138, residues 29-250: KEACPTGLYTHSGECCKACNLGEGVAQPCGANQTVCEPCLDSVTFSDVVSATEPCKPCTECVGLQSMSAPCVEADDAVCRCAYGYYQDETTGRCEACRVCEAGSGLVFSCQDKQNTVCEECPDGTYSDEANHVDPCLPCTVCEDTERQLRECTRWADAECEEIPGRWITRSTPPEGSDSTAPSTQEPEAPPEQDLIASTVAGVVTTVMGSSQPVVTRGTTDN
UniProt Q96FE5, residues 42-538: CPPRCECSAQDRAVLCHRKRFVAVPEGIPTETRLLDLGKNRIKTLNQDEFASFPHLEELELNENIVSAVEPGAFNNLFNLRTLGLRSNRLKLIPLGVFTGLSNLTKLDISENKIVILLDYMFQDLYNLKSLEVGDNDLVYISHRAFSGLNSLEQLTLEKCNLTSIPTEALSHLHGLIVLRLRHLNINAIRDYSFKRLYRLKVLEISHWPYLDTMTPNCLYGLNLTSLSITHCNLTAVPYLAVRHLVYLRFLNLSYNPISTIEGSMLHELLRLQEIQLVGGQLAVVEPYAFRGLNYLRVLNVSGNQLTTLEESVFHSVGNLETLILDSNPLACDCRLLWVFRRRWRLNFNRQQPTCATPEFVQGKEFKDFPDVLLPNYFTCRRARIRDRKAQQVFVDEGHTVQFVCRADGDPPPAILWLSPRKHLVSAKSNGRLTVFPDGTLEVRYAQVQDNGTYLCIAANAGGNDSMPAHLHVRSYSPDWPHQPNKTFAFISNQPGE
UniProt Q9NQC3, residues 1055-1120: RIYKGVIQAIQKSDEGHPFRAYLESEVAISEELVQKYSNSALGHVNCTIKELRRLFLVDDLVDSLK

What was measured:
p75 = p75 (UniProt P08138); assay: ELISA
OMgp = molecular target: T1, OMgp (UniProt P23515); assay: ELISA
T1 sequence (looked up): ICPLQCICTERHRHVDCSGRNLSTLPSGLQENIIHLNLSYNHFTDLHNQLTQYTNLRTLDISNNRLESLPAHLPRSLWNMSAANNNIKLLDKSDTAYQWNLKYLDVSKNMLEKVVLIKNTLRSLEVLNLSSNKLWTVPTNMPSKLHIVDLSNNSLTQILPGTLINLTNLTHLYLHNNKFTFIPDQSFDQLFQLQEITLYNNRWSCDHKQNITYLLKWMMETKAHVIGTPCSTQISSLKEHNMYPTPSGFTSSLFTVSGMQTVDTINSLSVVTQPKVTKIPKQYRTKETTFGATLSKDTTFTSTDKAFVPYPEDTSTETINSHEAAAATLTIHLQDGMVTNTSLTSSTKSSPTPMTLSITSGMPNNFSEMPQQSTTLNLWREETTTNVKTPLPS

LINGO-1 = LINGO-1 (UniProt Q96FE5); assay: ELISA
TAJ [1] = molecular target: T2, TAJ (UniProt Q9NS68 30-170, limits assumed); assay: ELISA
T2 construct: also called TROY
T2 sequence (looked up): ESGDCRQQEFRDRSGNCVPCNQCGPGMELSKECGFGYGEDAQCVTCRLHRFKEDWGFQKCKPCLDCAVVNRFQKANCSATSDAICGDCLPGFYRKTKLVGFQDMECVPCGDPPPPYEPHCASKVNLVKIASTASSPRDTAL

Nogo-66 = Nogo-66 (UniProt Q9NQC3); assay: ELISA
TAJ [2] = molecular target: T2, TAJ; assay: ELISA; binds more weakly than FL-NgR1

binding (p75): binds | binding (OMgp): binds | binding (LINGO-1): binds | binding (TAJ [1]): binds | binding (Nogo-66): binds
B1: Human NgR1, excluding the GPI domain (FL-NgR1, residues 27-438) with a flag tag at its N-terminus (receptor)
chain: CPGACVCYNEPKVTTSCPQQGLQAVPVGIPAASQRIFLHGNRISHVPAASFRACRNLTILWLHSNVLARIDAAAFTGLALLEQLDLSDNAQLRSVDPATFHGLGRLHTLHLDRCGLQELGPGLFRGLAALQYLYLQDNALQALPDDTFRDLGNLTHLFLHGNRISSVPERAFRGLHSLDRLLLHQNRVAHVHPHAFRDLGRLMTLYLFANNLSALPTEALAPLRALQYLRLNDNPWVCDCRARPLWAWLQKFRGSSSEVPCSLPQRLAGRDLKRLAANDLQGCAVATGPYHPIWTGRATDEEPLGLPKCCQPDAADKASVLEPGRPASAGNALKGRVPPGDSPPGNGSGPRHINDSPFGTLPGSAEPPLTAVRPEGSEPPGFPTSGPRRRPGCSRKNRTRSHCRLGQAGSGG
notes: Soluble protein expressed in CHO cells; also called human FL-NgR1; NgRI; not shown: N-terminal flag tag

binding (TAJ [2]): binds
B2: NgR1 (310), truncated version containing just the LRR region (receptor, not shown: small tags and cut ends)
chain: CPGACVCYNEPKVTTSCPQQGLQAVPVGIPAASQRIFLHGNRISHVPAASFRACRNLTILWLHSNVLARIDAAAFTGLALLEQLDLSDNAQLRSVDPATFHGLGRLHTLHLDRCGLQELGPGLFRGLAALQYLYLQDNALQALPDDTFRDLGNLTHLFLHGNRISSVPERAFRGLHSLDRLLLHQNRVAHVHPHAFRDLGRLMTLYLFANNLSALPTEALAPLRALQYLRLNDNPWVCDCRARPLWAWLQKFRGSSSEVPCSLPQRLAGRDLKRLAANDLQGCA
